Measured values from patent US6369109B1, “Betulinic acid and derivatives thereof useful for the treatment of neuroectodermal tumor” (Deutsches Krebsforschungszentrum Stiftung des Offentlichen …, priority 1998, dated 2002).
For at least one compound, name, drawing or mass did not settle the structure.

Legend:
[1] = test system: Ewing's sarcoma (A17/95); test: Specific apoptosis, FACS analysis of propidium iodide-stained nuclei; format: cell-based; settings: 10 μg/ml, 72 h; FIG. 1A
[2] = test system: melanoma (A-378); test: as above; format: cell-based; settings: 10 μg/ml, 72 h; FIG. 1A
[3] = test system: renal cell carcinoma (KTCTL-26); test: as above; format: cell-based; settings: 10 μg/ml, 72 h; FIG. 1A
[4] = test system: T-cell leukemia (CEM); test: as above; format: cell-based; settings: 10 μg/ml, 72 h; FIG. 1A
[5] = test system: CD95 protein in SH-EP neuroblastoma cells; test: CD95 protein expression after incubation; format: cell-based, human; settings: data not shown
[6] = test system: renal cell carcinoma cells (KTCTL-26); test: Western blot of FLICE and PARP cleavage; format: cell-based; settings: 10 μg/ml, 24 h; FIG. 6B
[7] = test system: CD95-L and CD95 in SHEP cells transfected with Bcl-2, Bcl-XL or Neo; test: Induction of CD95-L and CD95 (RT-PCR, Western blot, FACS); format: cell-based, human; settings: 0.5 μg/ml Doxo or 10 μg/ml betulinic acid, 24 h, Bcl-2 or Bcl-XL cells, FIG. 13
Description: Cells were stained with anti-APO-1 (CD95) IgGl monoclonal antibody (moab) (1 μg/ml; Trauth et al., 1989, Science 245:301-305) for 45 minutes at 4° C. followed by goat anti-mouse IgG-FITC (Immunotech, Hamburg, Germany) for 30 minutes at 4° C. FII23 IgGl antibody was used as an isotype matched non-binding antibody to control unspecific binding.
Total RNA was prepared using the Qiagen total RNA kit (Qiagen, Hilden, Germany). RNA was converted to cDNA by reverse transcription and amplified for 38 cycles by PCR in a thermocycler (Stratagene, Heidelberg, Germany) using the Gene Amplification RNA-PCR kit (Perkin Elmer, Branchburg, N.J.) following the manufacturer's instructions. A 500-base pair fragment of CD95-L was amplified using primer 5′[…]3′ (SEQ ID:No 1) and 5′[…]3′ (SEQ ID NO:2) and a 311-base pair fragment of CD95 was amplified using primer 5′[…] […]
CD95-L mRNA expression was determined by RT-PCR. […] CD95-L protein was detected as a Mr 37,000 band by mouse anti-CD9S-L moab and enhanced chemiluminescence.
SHEP cells transfected with Bcl-2 or Bcl-XL or a neomycin resistance vector only (Neo) were treated (Lanes+) with 0.5 μg/ml Doxo or 10 μg/ml Bet A for 24 h. CD95 mRNA expression was determined by RT-PCR. […] For FACS analysis of CD95 protein expression (C), cells were stained with mouse anti-APO-1 moab followed Dy FITC-conjugated antimouse IgG antibody and analyzed by flow cytometry. […]

Question: Which “response to betulinic acid (specific apoptosis)” value (shortened to “response to betulinic acid”) [1] does the source give for `C=C(C)[C@@H]1CC[C@]2(C(=O)O)CC[C@]3(C)[C@H](CC[C@@H]4[C@@]5(C)CC[C@H](O)C(C)(C)[C@@H]5CC[C@]43C)[C@@H]12` [betulinic acid, 3β-3-hydroxylup-20(29)-en-28-oic acid] here?
Answer: highly responsive

Question: And the “response to betulinic acid” value [2]?
Answer: highly responsive

Question: What about the “response to betulinic acid” value [3] of the same compound?
Answer: almost completely refractory

Question: And the “response to betulinic acid” value [4]?
Answer: almost completely refractory

Question: And the “up-regulation of CD95 protein” value [5]?
Answer: no up-regulation of the CD95 protein could be detected

Question: And the “cleavage of FLICE and PARP” value [6]?
Answer: but not in tumor cells resistant to betulinic acid

Question: And the “induction of CD95-L and CD95” value [7]?
Answer: no upregulation of CD95-L or CD95 was found at any time point
